In all, about 33,000 sequences were measured (“E-score (-0.5 to 0.5)”: median about -0.0014, highest 2% from about 0.25 on). The list shows a part of the results.
Biological target: T1, Cad1 (UniProt P24813)
T1 sequence: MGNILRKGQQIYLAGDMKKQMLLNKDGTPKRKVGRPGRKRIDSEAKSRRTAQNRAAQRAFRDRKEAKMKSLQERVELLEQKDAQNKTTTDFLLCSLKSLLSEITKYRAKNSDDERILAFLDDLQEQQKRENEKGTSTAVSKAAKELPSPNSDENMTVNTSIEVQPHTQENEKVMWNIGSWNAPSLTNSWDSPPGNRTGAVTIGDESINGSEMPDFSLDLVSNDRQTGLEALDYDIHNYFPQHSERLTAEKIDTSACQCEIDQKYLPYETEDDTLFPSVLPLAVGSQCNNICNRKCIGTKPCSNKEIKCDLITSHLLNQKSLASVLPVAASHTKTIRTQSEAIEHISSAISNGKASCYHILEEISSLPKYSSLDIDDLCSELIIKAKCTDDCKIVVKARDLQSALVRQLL
Test: PBM E-score (8-mer binding enrichment) (E-score (-0.5 to 0.5)); higher = stronger / more preferred TF binding
Settings: protein concentration: 100 nM; construct: GST-full length
In short: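 E-scores (a modified Wilcoxon-Mann-Whitney statistic) were assigned by the Universal PBM Analysis Suite to every ungapped eight-base word pooled with its reverse complement. The input came from universal all-10-mer Agilent arrays made double-stranded by primer extension and probed with GST-tagged yeast transcription factors at about 100-200 nM. Fluorescent anti-GST detected bound protein, and masliner normalised the scans.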

Sequence | PBM E-score
AAGAAGGT | -0.0757
AGTCCACT | -0.221
CTACCGCC | -0.153
CTGCCAAA | 0.0517
CGATTCTA | -0.0648
AAGTCATC | 0.0371
AGAAGGCC | -0.104
AAGAACGG | -0.0894
TCTAAAGA | 0.148
CCTTAGCC | -0.00184
CGCGAGGC | 0.13
AATAGATC | 0.0487
AACCTTAT | -0.0603
ACTCCGGA | 0.134
AACGGATA | 0.252
CCAGTCAA | -0.0575
ACGGGCAC | -0.14
ATGCGAAT | -0.0573
AATAATGA | 0.0377
GAAAATGA | 0.0821
TAAAGCCA | 0.14
TCATGTCA | 0.139
CCAAGTCC | -0.185
AAGGCGCC | 0.0395
CATTATAC | 0.0868

Sequence | PBM E-score
CTCATTCA | 0.0583
GCGTTGGA | -0.0498
ATGAGCCC | -0.194
CCAGCCTC | -0.312
CTTAAGAA | 0.167
GAGCCTGC | -0.0048
AAACGGAC | -0.00593
ACGTCCTG | -0.0935
CAGAATAG | 0.0197
GCCCGGAA | 0.0643
CTGGGATC | -0.106
CCACCGCG | 0.156
TACGTCGA | -0.0298
TACTCCGA | 0.0119
CTAACATC | -0.0169
ACAAGGCT | -0.161
CCAGTGAG | -0.204
CCTGTCCA | -0.176
AATCGTCC | 0.107
CTTCCTTA | -0.102
CCCTGTGC | -0.162
GATGTTGA | -0.0305
CAAGCTGA | 0.248
ATTATGGA | -0.00855
AAATGGGT | 0.131

Sequence | PBM E-score
CAAATCTC | 0.0661
CTGATCTC | -0.00887
GCACAACC | -0.051
CAGTTGCC | -0.0209
GGGGTTTA | -0.128
ACCCTACT | -0.122
AAGGGGCA | -0.173
TGCAGCAA | 0.11
GAAACGCC | 0.0411
AGTTTCGG | 0.06
ATCGCTGC | 0.0431
ATGCAATG | -0.00462
CCGGGGGA | -0.332
AGACAGGA | 0.0481
GAGGCATC | -0.186
ACACGACA | 0.0619
TCCGTAAA | 0.0234
GTAGAGCA | -0.217
AGCCGGCG | 0.0742
CTTCTCAC | 0.00034
CGACCCAG | -0.178
CAGGCCGA | 0.00503
CCCTCGGA | -0.0356
ACAACGAT | 0.113
CCTCGCAC | -0.022

Sequence | PBM E-score
TCTGACCA | 0.127
ACTCTGGG | -0.162
AGCGCTCG | -0.0111
CCTCATAA | -0.0485
AGTTGGTG | 0.00622
ATGGATTA | 0.0129
ACATGGCT | -0.15
ATCATTGC | -0.0613
GCGGCGAC | 0.0462
CCACCGGA | 0.213
ACAACCAC | 0.056
CTTCGGAC | 0.132
AGACAAGC | -0.0191
TGATACCA | 0.0568
ATCGCCCA | -0.176
CTGACGTC | 0.208
AATTGGGT | 0.219
GAGAGATC | 0.0748
TCGATGCA | 0.0348
AAATCGAC | 0.12
AAACGCTC | -0.0632
CGTAGCAC | 0.0419
GGATTGAA | 0.194
AGGCGTTC | -0.303
ATTCGAGC | -0.0299

Sequence | PBM E-score
GTATGAAA | 0.0978
TATAGACA | 0.0717
GATGAGGA | 0.00167
AAGTTAGT | 0.0879
ACAGGGTA | -0.0232
AAGTAACG | -0.0002
GGGGGGGA | -0.464
GGGGGTAA | -0.395
ATGGATAG | -0.088
ATAGACAA | 0.136
AGTTGCGC | 0.0854
GAATACGA | -0.0473
TCACATGA | -0.0263
GGGGACAA | -0.143
CACGAGTA | 0.0853
AACTACTG | 0.0241
CCCCTGCC | -0.34
AACAGGGT | -0.225
ACCAAAAT | 0.0849
CATGCATC | 0.148
CGATAACG | -0.0126
AGGCCAGC | -0.122
GATAACGC | 0.0875
CAGATACA | 0.229
ACCCCGGC | -0.245

Sequence | PBM E-score
ACCCCCCC | -0.411
CTCAAGTA | -0.0446
TAGGTACA | -0.17
CAACATCA | 0.115
CCTGCGGA | 0.129
GTCTTTGA | -0.00364
CCACGATC | 0.155
ACGTTTAT | 0.156
AGCAGACG | -0.03
CGCTGCCA | -0.152
CCAGAGAG | -0.239
CGCTGGCC | -0.169
GTAGCCAA | -0.102
AAACCGTT | 0.027
GTAGGCGA | -0.212
CGACAGTC | -0.12
AGTATAAG | 0.0523
CGAGAGTA | 0.106
AGCAGCTG | 0.0375
CAGTGTGC | -0.137
ATAAGATA | 0.264
AACTCGAT | 0.169
AAGACCAC | -0.154
CTCATTGA | -0.22
AGGATGGC | -0.107

Copied from the list.
PBM E-score, AACCTTAT is entered as -0.0603
PBM E-score, CTTAAGAA is entered as 0.167
PBM E-score, AATAATGA is entered as 0.0377
PBM E-score, ACCCCGGC is entered as -0.245
PBM E-score, CCACGATC is entered as 0.155
PBM E-score, ATGCGAAT is entered as -0.0573

More entries.

Sequence | PBM E-score
CAGAGTGA | -0.0276
ACACTCCG | -0.0219
ATTGGAGA | 0.133
CGGTGCGA | -0.0305
AATTGGAA | 0.0492
CGATGCCC | -0.231
ACAACTCA | 0.106
CCAGACGG | -0.127
AGAGGTTA | 0.0298
AATTCGAT | 0.219
ACGTGGGA | -0.0878
GTACTCAA | -0.0961
AGGCTATC | -0.0241
AATAGGAA | 0.0691
CCGCTATA | -0.158
TGCCGAAA | 0.0985
AATCACCG | 0.185
ACCTAGCC | -0.168
AGGCTGTG | -0.102
AACCCGGA | -0.00506
ATGCCATC | 0.0117
CCGGTGCC | -0.167
